{"sequences": {"note": "By UniProt entry, the sequences of proteins in these tests, tags left out. Where a name states a change or a piece, a line headed by the entry shows the natural chain unless it says otherwise.", "UniProt P19793": "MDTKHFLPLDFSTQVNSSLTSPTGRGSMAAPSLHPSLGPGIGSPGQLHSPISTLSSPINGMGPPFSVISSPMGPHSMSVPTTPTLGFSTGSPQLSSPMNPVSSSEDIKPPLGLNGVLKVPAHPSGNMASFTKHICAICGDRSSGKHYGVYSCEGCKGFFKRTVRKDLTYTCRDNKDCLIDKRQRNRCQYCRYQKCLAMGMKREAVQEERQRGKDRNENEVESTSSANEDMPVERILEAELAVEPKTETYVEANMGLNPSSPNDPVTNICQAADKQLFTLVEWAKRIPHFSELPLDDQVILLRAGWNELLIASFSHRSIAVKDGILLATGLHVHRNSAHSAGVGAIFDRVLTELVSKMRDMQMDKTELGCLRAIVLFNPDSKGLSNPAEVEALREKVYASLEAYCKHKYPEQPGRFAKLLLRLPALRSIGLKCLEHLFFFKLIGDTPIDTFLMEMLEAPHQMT"}, "source": "patent US20080050387A1", "about": "“Non-Androgen Dependent Roles for Androgen Receptor and Non-Androgen Related Inhibitors of Androgen Receptor” (priority 2003, published 2008)", "target": "T1, vitamin D receptor (VDR) (UniProt P11473)", "T1 sequence": "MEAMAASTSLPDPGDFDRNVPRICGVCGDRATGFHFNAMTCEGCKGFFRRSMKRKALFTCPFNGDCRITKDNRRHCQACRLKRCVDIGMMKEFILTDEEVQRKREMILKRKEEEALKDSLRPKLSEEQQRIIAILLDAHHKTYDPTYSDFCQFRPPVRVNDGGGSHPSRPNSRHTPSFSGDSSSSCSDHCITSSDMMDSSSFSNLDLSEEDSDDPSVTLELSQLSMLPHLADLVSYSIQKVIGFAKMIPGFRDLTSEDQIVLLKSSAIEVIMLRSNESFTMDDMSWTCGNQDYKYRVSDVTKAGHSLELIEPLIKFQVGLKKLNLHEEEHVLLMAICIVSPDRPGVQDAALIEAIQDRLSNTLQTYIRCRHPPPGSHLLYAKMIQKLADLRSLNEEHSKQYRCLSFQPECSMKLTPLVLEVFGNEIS", "assay": "mammalian two-hybrid in PC-3 cells, GAL4-RXRα + VP16-VDR", "note": "No constants are given. Whether binding was seen depends on the method and setting. A result given as binding can be weak or reduced; the word gives no strength."}
{"substance": "RXRα (GAL4-RXRα) (from UniProt P19793) (receptor)", "values": [{"measurement": "binding", "result": "binds"}]}
